Reference: article PMC12847834
No constants are given. Whether binding was seen depends on the method and setting. Binding seen in cells or lysates may run through a third protein. These calls come from enrichment with a bait or labelling near it, and not all partners need be listed. Tags and fused reporters may be left off the sequences shown.

Chains of the proteins cited; added tags and fusions are not shown.
UniProt Q93009: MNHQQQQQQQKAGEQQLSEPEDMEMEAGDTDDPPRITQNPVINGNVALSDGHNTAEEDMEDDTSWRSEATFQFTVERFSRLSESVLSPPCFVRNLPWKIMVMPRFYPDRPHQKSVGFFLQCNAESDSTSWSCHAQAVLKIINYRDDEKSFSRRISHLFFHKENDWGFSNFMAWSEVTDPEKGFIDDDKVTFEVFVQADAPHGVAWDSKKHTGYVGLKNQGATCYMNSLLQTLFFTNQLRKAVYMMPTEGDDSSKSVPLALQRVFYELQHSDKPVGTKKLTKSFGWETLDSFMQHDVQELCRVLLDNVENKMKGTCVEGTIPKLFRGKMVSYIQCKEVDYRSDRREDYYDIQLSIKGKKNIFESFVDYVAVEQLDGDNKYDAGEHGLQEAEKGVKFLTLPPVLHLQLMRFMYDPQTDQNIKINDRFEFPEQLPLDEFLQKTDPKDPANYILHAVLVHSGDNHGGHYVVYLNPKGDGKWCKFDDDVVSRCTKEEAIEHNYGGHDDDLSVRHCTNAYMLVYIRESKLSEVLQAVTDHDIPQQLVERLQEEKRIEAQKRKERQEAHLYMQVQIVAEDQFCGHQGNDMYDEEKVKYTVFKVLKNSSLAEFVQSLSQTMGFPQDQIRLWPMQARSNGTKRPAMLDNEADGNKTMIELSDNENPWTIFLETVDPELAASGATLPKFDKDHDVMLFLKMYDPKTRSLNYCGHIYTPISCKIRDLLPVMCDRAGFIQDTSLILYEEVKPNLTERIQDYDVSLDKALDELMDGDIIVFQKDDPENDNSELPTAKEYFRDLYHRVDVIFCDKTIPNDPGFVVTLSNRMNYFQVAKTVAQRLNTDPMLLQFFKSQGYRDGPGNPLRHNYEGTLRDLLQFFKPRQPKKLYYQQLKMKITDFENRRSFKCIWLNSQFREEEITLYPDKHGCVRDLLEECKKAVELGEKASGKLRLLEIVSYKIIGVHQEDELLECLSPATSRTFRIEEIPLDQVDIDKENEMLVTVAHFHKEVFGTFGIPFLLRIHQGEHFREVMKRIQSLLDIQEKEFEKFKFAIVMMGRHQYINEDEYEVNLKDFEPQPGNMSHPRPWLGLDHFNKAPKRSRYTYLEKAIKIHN

Molecular target: T1, Flag-KDM4A (full-length lysine demethylase 4A) (UniProt O75164)
T1 sequence: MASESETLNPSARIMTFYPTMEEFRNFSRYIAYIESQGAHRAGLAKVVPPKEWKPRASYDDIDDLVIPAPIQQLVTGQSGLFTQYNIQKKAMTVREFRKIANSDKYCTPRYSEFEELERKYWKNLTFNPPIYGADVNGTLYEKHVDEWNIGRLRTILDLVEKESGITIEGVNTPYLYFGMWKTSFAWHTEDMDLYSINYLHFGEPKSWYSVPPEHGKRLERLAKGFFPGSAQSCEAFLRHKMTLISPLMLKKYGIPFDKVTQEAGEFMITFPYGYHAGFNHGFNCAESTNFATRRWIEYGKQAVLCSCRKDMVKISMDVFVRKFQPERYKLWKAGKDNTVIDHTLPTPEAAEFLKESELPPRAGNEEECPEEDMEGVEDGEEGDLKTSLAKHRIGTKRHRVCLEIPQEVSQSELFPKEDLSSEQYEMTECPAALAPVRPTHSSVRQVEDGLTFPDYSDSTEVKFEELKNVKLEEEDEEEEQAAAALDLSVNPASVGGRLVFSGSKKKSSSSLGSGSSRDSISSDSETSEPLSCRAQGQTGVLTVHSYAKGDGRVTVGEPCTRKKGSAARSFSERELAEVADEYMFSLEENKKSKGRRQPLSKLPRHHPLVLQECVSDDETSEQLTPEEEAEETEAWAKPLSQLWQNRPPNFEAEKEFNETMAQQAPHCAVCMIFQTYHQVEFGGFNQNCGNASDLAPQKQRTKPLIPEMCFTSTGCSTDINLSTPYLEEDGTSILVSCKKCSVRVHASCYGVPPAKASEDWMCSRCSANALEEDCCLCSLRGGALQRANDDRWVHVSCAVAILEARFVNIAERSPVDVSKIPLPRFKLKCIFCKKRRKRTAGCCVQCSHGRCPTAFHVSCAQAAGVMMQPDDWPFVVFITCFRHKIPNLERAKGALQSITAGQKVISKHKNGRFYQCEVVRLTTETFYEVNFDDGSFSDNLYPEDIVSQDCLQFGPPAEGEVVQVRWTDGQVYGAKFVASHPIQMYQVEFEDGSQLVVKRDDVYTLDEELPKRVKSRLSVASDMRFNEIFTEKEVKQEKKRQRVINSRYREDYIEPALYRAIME
Assay: affinity purification with mass spectrometry; Flag-KDM4A over-expressed in 293T cells; co-IP with Flag antibody with highly stringent wash steps; SDS-PAGE, silver staining, excised bands analysed by mass spectrometry

binding: binds
Substance: USP7 (ubiquitin-specific processing protease 7), endogenous (from UniProt Q93009 1-1102)
